These are yes or no findings as the source states them, for the method shown. In cells and extracts the contact can be indirect. Some binding calls cover weakened binding; strength is not graded here.
Experiments:
[1] = molecular target: phosphorylated cAMP response element binding (CREB) protein (pCREB) (not stated (endogenous in NP cells; mouse and human NP cells were cultured)) (UniProt Q01147); experiment: co-IP; nuclear and cytoplasmic extracts (NE-PER kit) of in vitro-cultured NP cells treated with PTH (1-34) or vehicle; IP with anti-pCREB and blot for PTH1R, or IP with anti-PTH1R and blot for pCREB; interaction reported in the cytoplasmic (acetylated tubulin) extract
[2] = molecular target: parathyroid hormone 1 receptor (PTH1R) (not stated (endogenous in NP cells; mouse and human NP cells were cultured)) (UniProt P41593); experiment: as above

By UniProt entry, the sequences of proteins in these tests, tags left out. Residues count along the entry.
UniProt Q01147: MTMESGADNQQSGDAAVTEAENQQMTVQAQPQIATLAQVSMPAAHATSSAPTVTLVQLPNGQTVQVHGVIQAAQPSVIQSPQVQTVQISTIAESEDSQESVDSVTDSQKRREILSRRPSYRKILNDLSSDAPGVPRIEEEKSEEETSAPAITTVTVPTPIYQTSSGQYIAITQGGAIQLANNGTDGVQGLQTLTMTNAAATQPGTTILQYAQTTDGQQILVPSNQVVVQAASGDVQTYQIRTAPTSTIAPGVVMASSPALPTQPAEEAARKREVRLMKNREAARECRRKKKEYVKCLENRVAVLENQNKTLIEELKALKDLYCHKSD
UniProt P41593, residues 27-591: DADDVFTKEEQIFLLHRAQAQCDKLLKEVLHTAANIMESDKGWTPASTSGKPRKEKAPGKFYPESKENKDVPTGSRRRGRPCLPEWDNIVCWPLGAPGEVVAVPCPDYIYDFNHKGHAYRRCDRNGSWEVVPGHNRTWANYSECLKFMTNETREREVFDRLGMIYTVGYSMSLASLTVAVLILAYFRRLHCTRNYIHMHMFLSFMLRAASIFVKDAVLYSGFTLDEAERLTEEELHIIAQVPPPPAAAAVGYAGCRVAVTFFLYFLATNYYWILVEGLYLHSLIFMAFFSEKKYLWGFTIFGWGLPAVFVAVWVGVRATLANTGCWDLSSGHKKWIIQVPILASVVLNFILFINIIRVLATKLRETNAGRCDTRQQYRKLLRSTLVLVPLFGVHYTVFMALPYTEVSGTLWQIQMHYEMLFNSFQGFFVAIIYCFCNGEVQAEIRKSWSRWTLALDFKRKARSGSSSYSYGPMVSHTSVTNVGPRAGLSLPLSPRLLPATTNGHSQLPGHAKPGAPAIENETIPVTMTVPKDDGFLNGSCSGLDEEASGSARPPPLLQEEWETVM

| binding [1] | binding [2] | Substance |
| --- | --- | --- |
| binds | – | parathyroid hormone 1 receptor (PTH1R) (from UniProt P41593 27-591) |
| – | binds | phosphorylated cAMP response element binding (CREB) protein (pCREB) (from UniProt Q01147 1-327) |

Reference: paper PMC6050246
